Data from PMC6660512.

Columns and labels:
Experiment in all cases: pull-down; IMAC (affinity chromatography) using His-tagged Δ20, its halves Δ20 N and Δ20C or RFP-tagged Δ20 min, with EGFP-tagged SPARC or its deletion mutants (Fig. 2f, g; Suppl. Figure 3c-e, 4b)
[1] = biological target: His-tagged Nogo-A-Δ20
[2] = biological target: Nogo-A-Δ20C
[3] = biological target: RFP-tagged minimal deleted Nogo-A(Δ20)
[4] = biological target: Nogo-A-Δ20 N

- binding [1]: binds
- binding [2]: binds
- binding [3]: binds
- binding [4]: no binding
B1: EGFP-tagged SPARC (protein, UniProt P09486 18-303)
chain: APQQEALPDETEVVEETVAEVTEVSVGANPVQVEVGEFDDGAEETEEEVVAENPCQNHHCKHGKVCELDENNTPMCVCQDPTSCPAPIGEFEKVCSNDNKTFDSSCHFFATKCTLEGTKKGHKLHLDYIGPCKYIPPCLDSELTEFPLRMRDWLKNVLVTLYERDEDNNLLTEKQKLRVKKIHENEKRLEAGDHPVELLARDFEKNYNMYIFPVHWQFGQLDQHPIDGYLSHTELAPLRAPLIPMEHCTTRFFETCDLDNDKYIALDEWAGCFGIKQKDIDKDLVI

No constants are given. Whether binding was seen depends on the method and setting. In cells and extracts the contact can be indirect. For some of these results: Binding can be weak; no strength is given. Tags and fused reporters may be left off the sequences shown.
